Values quoted from earlier work in patent US11116748B2, “Compositions and methods for reducing weight gain” (THE MEDICAL COLLEGE OF WISCONSIN, INC., priority 2018, dated 2021).

Test system: gut microbiome
Conditions: risperidone treatment; cited from earlier work

Compound: Cc1nc2n(c(=O)c1CCN1CCC(c3noc4cc(F)ccc34)CC1)CCCC2 [risperidone]
- observed taxa in the gut microbiome: overall reduction in observed taxa
